Measured values as given in the supplement of paper PMC10849652.
The other results are listed elsewhere or left out.

Sequences of proteins named here, by UniProt entry; tags and fusion partners are left off. A change or cut given only in a name is not applied to a line headed by its entry.
UniProt Q15125: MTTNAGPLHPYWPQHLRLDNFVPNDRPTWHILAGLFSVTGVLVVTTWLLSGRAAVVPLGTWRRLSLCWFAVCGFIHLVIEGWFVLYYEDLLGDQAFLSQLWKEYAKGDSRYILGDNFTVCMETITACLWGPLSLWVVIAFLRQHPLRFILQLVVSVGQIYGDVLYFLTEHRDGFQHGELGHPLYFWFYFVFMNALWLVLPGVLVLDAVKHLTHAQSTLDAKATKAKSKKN
UniProt Q99543: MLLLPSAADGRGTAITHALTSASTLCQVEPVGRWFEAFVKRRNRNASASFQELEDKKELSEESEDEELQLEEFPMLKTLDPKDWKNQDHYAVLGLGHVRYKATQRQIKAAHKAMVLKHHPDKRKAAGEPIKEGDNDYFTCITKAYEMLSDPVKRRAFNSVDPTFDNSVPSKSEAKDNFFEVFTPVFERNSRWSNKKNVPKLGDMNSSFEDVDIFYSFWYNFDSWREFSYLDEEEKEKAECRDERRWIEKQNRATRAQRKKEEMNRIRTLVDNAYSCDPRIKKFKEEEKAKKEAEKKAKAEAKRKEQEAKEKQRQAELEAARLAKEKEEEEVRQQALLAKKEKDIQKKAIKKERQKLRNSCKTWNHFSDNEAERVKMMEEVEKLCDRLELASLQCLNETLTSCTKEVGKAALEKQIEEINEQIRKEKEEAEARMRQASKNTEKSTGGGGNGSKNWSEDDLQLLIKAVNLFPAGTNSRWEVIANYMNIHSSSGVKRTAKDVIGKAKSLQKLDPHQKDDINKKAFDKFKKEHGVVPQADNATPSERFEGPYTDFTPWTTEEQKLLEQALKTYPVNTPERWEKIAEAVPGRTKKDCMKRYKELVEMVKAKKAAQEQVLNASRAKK
UniProt P42126: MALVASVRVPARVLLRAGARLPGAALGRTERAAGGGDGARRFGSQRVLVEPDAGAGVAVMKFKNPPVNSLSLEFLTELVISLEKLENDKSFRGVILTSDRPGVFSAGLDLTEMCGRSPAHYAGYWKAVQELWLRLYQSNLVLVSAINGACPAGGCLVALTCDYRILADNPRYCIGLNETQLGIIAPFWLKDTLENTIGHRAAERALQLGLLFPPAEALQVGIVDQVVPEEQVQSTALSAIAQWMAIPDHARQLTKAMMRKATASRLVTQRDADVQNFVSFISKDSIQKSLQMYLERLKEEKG
UniProt Q9UDY4: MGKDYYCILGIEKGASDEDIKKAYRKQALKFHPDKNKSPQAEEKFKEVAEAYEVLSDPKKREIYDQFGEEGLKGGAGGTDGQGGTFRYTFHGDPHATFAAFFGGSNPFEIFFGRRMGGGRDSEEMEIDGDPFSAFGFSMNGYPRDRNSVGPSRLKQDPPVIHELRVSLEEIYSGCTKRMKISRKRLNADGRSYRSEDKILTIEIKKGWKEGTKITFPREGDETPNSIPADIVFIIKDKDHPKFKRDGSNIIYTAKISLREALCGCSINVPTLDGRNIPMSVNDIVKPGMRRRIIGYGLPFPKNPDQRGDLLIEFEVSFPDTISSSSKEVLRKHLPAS
UniProt Q01658: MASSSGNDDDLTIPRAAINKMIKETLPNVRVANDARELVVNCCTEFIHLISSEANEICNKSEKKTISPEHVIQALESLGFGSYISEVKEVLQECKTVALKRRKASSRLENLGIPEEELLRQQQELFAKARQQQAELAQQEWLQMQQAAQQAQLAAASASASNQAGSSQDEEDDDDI
UniProt Q9C005, whole entry, looked up: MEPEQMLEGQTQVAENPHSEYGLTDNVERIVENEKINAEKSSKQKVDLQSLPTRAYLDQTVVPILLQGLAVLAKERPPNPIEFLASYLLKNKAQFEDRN
UniProt Q9BZ29: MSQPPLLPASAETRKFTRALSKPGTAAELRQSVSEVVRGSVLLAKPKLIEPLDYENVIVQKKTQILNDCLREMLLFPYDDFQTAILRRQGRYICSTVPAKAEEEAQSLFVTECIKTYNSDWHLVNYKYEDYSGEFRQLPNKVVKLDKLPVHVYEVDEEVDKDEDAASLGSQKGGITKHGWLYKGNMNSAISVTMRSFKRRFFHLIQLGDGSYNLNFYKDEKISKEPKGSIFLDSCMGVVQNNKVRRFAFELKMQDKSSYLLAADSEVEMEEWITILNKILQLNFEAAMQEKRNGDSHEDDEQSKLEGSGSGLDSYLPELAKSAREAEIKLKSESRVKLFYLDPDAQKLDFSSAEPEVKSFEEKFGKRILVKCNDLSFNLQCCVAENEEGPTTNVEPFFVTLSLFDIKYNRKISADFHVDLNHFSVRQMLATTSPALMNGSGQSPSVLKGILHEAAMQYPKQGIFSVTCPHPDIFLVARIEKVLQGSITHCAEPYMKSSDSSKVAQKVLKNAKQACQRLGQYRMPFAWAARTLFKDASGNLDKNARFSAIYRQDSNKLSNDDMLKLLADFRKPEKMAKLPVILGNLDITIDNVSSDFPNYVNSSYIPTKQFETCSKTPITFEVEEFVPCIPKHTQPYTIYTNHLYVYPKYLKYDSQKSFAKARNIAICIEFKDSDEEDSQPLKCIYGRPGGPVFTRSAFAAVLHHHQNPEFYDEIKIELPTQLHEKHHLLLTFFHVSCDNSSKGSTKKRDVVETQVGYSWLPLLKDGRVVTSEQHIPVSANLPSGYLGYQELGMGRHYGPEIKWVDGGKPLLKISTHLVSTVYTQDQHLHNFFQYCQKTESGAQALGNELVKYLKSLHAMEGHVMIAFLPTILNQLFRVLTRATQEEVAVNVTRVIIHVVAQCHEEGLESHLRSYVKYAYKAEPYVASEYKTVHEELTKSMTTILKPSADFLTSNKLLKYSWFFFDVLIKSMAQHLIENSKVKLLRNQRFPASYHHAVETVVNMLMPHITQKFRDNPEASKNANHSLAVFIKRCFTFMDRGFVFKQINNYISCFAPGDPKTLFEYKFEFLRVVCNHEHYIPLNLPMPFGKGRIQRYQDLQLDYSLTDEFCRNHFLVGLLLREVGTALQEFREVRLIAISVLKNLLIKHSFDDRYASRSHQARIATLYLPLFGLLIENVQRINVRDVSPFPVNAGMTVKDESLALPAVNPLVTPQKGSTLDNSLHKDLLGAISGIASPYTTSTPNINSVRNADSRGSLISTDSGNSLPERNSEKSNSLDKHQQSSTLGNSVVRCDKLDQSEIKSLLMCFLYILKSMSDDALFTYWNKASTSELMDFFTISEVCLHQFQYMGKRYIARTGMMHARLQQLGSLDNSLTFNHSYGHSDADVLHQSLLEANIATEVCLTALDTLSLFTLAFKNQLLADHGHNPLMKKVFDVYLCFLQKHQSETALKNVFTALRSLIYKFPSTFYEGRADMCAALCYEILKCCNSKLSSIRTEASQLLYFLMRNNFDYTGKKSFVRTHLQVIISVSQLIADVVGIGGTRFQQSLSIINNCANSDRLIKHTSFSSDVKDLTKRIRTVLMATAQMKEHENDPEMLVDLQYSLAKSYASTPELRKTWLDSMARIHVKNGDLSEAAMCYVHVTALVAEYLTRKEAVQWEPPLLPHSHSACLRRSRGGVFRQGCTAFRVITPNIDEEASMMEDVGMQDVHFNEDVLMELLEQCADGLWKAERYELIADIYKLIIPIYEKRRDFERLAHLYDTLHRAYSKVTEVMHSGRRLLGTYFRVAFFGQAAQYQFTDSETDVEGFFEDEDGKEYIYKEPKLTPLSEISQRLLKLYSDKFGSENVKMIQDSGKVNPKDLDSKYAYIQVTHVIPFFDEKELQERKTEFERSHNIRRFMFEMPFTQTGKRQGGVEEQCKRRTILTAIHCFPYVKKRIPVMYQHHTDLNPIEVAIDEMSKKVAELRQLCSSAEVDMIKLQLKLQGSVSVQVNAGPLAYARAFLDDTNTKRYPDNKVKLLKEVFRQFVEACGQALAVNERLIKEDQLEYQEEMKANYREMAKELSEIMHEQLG
UniProt Q14126: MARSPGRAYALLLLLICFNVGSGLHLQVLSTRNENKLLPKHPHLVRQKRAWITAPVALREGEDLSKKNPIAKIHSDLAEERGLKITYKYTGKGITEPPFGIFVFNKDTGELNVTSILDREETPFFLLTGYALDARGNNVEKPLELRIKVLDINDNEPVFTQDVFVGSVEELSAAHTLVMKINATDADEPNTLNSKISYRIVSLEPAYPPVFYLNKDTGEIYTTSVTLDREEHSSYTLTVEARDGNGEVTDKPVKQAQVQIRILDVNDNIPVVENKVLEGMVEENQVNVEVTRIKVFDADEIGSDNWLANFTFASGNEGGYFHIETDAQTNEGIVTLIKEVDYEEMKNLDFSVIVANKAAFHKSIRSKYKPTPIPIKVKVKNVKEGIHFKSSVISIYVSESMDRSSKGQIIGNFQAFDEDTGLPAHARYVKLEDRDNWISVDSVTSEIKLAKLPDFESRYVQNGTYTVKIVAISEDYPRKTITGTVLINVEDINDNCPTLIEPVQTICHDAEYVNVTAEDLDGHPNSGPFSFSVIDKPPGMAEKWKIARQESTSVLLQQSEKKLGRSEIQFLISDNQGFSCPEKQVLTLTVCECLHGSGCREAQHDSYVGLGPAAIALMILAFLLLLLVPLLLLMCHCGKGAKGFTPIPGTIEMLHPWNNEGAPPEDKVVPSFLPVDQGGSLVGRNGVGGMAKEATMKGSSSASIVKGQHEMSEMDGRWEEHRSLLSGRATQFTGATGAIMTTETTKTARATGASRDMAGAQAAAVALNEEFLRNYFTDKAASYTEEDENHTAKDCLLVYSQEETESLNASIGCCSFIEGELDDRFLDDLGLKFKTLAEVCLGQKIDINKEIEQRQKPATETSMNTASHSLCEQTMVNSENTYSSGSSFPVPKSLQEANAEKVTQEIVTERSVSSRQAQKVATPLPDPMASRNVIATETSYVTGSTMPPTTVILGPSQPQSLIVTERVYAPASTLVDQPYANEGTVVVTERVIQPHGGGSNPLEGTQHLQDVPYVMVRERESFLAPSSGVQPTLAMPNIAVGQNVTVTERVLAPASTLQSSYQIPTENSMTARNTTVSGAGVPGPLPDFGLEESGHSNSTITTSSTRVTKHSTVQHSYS
UniProt Q9NVM6: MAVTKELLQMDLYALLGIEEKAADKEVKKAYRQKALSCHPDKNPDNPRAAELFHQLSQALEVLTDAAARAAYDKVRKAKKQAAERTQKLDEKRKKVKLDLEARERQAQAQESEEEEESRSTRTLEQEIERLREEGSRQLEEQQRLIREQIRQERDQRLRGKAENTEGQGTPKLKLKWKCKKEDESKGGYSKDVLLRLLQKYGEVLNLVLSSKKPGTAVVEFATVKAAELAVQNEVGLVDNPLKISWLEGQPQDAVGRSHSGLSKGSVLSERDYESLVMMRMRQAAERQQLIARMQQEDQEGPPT
UniProt P33316: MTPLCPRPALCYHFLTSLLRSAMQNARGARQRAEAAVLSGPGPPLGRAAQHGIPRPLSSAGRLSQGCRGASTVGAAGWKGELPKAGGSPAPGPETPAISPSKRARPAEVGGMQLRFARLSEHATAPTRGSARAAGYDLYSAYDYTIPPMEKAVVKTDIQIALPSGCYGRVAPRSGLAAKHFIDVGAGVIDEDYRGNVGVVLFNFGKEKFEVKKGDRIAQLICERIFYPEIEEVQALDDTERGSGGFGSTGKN
UniProt O43598: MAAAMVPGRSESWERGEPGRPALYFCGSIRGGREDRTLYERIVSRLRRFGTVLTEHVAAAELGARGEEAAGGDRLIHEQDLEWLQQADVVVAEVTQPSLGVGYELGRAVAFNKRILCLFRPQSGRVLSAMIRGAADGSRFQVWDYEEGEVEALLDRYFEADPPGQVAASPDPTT
UniProt Q9H3H5: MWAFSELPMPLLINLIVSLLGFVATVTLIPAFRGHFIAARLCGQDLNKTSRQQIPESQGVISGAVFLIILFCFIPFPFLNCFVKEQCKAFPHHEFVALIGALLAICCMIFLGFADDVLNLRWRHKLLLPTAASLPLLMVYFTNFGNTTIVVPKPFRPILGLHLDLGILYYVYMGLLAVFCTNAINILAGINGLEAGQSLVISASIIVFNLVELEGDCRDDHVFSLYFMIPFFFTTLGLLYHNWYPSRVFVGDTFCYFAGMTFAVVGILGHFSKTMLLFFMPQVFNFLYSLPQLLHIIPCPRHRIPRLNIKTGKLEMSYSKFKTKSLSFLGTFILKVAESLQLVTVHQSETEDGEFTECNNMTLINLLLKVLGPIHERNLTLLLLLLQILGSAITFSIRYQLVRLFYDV
UniProt Q9BZG8: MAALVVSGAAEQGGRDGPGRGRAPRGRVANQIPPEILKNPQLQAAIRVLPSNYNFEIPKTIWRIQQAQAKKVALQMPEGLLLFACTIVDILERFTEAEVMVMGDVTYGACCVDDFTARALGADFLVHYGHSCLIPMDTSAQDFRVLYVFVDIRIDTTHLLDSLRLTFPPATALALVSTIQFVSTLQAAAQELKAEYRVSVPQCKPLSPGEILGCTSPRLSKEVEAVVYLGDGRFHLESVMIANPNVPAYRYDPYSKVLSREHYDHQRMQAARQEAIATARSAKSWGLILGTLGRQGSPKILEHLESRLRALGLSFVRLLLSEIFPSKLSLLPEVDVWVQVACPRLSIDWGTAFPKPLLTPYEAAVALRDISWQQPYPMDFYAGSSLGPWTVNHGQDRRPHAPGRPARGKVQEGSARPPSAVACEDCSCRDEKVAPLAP

Each target was assayed with COC(=O)[C@H](CCSC)NC(=O)C1=C(C=C(C=C1)NC[C@H](CS)N)C2=CC=CC=C2 (assay: log2 fold change, soluble protein after heating vs DMSO (PISA); higher = thermal stabilisation; K562 cells, 10 uM, 30 min; active = over 0.2 and 3.5 SD of the protein, either way, in both replicates (recomputed)).
How it was run: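 K562 cells at 2×10^6 cells/mL were treated with 10 μM compound for 30 min. Aliquots were heated for 3 min across 48°C-58°C, pooled, and extracted in PBS with 0.5% NP-40 at 4°C; soluble protein was the supernatant after 21,000xg for 90 min. Soluble protein was quantified by TMTpro 16plex LC-MS/MS with channel sums equalised, and reported as log2 fold change in thermal stability against DMSO controls, with values from duplicates.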

log2 fold change, inactive:
EDEM1 (UniProt Q92611) 0.009
EBP (UniProt Q15125) -0.01
DYNLL1 (UniProt P63167) -0.122
DPH6 (UniProt Q7L8W6) -0.041
ECSIT (UniProt Q9BQ95) 0.045
DNAJC9 (UniProt Q8WXX5) 0.014
DNAJC2 (UniProt Q99543) -0.132
ECI1 (UniProt P42126) -0.074
DNM1L isoform 6 (UniProt O00429) -0.032
DPF2 (UniProt Q92785) 0.075
DNAJB4 (UniProt Q9UDY4) 0.022
ECHDC1 (UniProt Q9NTX5) 0.018
DTD1 (UniProt Q8TEA8) 0.004
DR1 (UniProt Q01658) 0.035
DPY30 (UniProt Q9C005) 0.144
DNAJB6 (UniProt O75190) 0.075
DOCK9 isoform 4 (UniProt Q9BZ29) -0.025
DPP7 (UniProt Q9UHL4) 0.012
DNASE2 (UniProt O00115) 0.001
DUSP3 (UniProt P51452) -0.011
DSG2 (UniProt Q14126) 0.036
DNAJC17 (UniProt Q9NVM6) -0.011
DPH2 (UniProt Q9BQC3) 0.072
EBAG9 isoform 2 (UniProt O00559) 0.015
DUT (UniProt P33316) -0.011
DNPH1 (UniProt O43598) 0.007
DPAGT1 (UniProt Q9H3H5) 0.022
DPH1 (UniProt Q9BZG8) -0.007
DOCK7 (UniProt Q96N67) 0.004
DPY19L4 (UniProt Q7Z388) 0.028
DPP9 isoform 2 (UniProt Q86TI2) -0.037
DPH7 (UniProt Q9BTV6) 0.045
EDEM3 (UniProt Q9BZQ6) -0.011

For convenience, part of the list above:
log2 fold change, inactive:
DR1 (UniProt Q01658) 0.035
DPY30 (UniProt Q9C005) 0.144
